Measurements reported in the supplement of paper PMC10849652.
The list shows a part of the results.

By UniProt entry, the sequences of proteins in these tests, tags left out. Where a name states a change or a piece, a line headed by the entry shows the natural chain unless it says otherwise.
UniProt P68363, whole entry, looked up: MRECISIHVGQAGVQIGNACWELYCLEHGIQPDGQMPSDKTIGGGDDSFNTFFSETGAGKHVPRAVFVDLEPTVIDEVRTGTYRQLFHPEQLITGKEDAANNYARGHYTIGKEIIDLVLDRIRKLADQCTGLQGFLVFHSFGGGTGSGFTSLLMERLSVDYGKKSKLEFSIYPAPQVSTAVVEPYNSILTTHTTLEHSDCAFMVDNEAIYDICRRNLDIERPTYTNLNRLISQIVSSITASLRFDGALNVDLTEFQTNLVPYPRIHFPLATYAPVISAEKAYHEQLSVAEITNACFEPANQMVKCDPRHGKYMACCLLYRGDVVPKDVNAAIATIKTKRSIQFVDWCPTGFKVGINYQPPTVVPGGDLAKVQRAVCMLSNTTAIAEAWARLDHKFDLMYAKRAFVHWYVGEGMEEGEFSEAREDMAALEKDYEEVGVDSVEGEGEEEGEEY
UniProt P22314: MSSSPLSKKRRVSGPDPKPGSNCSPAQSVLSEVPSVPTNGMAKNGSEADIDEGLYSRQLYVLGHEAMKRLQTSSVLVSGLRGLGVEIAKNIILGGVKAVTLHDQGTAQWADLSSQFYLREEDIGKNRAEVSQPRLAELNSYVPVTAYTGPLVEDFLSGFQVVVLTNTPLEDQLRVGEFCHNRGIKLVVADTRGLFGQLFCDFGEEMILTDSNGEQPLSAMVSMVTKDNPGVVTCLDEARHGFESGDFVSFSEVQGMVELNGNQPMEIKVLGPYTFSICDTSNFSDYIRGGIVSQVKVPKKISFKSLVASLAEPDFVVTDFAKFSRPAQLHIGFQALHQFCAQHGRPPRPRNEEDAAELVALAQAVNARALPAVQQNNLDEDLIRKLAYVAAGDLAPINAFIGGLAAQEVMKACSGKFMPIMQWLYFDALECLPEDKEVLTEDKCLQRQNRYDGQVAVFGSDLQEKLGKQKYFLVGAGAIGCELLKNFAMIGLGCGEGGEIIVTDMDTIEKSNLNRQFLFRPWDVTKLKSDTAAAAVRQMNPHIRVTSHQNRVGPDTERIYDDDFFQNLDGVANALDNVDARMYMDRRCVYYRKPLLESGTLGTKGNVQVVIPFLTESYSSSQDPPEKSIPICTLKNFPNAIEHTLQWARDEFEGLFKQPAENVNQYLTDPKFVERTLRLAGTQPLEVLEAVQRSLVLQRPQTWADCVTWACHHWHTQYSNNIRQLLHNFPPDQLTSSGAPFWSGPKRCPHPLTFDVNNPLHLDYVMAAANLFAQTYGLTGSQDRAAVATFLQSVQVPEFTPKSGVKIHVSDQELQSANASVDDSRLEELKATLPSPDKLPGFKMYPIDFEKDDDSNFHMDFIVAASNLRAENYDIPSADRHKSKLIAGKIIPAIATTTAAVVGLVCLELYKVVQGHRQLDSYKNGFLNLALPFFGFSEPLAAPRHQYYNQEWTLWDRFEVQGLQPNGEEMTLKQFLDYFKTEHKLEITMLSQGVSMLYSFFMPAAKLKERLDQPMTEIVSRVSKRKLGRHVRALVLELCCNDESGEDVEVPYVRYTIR
UniProt Q99614: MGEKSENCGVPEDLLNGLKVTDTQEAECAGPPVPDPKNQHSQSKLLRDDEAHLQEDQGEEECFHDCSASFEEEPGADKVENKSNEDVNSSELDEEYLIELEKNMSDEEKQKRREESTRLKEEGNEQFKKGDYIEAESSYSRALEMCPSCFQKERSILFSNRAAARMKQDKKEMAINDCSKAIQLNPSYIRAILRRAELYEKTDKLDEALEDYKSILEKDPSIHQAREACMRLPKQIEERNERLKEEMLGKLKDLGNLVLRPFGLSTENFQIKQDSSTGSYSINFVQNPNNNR
UniProt Q15631: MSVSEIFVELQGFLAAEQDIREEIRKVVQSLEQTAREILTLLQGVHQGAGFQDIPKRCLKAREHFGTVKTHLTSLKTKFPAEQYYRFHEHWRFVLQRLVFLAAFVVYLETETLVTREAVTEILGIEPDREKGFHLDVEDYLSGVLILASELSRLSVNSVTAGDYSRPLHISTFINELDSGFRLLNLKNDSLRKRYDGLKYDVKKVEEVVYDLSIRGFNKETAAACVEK
UniProt P60604: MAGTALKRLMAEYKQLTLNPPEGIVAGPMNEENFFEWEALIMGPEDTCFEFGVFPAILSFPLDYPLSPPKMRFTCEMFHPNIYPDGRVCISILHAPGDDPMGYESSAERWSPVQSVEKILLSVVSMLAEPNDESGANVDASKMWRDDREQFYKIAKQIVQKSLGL
UniProt Q969T4: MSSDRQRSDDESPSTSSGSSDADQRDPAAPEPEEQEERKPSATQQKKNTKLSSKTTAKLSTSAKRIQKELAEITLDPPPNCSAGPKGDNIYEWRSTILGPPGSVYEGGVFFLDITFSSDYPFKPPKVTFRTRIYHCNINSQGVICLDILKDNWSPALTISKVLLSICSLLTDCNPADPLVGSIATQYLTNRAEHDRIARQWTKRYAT
UniProt O95881: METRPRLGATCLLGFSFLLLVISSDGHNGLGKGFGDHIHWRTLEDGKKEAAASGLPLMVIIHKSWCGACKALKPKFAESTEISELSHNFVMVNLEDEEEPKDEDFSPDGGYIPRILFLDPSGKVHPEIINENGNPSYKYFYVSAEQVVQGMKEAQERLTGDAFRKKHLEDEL
UniProt Q969E8: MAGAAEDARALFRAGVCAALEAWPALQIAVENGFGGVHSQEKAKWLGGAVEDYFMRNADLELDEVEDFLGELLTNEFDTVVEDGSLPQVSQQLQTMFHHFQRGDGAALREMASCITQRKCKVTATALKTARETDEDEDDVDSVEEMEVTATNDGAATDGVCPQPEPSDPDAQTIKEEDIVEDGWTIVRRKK
UniProt Q14157: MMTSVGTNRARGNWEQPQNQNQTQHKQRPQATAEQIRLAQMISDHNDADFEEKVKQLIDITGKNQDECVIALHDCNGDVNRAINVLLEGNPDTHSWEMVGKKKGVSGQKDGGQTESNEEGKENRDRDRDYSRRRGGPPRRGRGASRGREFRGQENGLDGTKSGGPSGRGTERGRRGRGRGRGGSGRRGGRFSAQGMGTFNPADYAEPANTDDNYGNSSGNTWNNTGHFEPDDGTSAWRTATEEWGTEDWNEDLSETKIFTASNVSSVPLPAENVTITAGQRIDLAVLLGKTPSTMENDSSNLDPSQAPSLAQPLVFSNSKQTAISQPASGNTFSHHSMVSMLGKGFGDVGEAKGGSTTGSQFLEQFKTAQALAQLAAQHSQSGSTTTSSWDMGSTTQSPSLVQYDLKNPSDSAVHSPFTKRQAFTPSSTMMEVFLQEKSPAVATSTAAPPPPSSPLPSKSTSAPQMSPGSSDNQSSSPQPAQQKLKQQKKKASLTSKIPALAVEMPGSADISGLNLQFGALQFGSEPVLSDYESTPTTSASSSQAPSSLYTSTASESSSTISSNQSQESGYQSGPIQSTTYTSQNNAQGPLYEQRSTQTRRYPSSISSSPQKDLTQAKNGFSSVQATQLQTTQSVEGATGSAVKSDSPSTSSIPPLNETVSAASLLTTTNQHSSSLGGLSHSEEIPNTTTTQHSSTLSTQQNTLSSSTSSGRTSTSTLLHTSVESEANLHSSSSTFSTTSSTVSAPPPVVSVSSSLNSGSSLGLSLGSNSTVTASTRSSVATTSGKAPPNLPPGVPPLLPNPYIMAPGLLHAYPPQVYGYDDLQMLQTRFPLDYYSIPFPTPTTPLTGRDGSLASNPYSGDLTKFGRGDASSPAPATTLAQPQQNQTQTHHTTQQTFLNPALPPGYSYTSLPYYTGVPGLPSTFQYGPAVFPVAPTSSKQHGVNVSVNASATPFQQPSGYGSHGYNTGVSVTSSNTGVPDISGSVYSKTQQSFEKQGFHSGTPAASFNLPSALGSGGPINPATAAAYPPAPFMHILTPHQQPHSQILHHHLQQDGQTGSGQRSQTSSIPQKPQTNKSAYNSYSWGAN
UniProt Q9NV66: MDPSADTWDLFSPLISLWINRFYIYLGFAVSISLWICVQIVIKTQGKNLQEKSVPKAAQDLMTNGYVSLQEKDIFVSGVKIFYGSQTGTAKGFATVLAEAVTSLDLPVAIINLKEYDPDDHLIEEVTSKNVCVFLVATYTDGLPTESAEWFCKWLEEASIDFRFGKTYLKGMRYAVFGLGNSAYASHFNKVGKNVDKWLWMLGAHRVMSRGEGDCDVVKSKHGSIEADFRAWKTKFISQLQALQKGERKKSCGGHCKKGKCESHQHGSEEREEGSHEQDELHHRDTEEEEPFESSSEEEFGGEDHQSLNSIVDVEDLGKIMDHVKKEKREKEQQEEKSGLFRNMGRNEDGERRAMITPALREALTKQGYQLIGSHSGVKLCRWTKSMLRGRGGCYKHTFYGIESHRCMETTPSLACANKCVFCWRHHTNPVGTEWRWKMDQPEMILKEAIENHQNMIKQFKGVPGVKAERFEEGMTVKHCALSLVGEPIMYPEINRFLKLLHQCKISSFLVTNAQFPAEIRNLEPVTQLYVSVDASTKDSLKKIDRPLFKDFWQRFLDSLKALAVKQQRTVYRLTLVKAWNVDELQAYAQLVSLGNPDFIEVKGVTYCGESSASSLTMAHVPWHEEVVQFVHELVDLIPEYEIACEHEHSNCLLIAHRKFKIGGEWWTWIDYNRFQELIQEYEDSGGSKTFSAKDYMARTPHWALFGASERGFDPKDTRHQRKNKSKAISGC
UniProt O95801: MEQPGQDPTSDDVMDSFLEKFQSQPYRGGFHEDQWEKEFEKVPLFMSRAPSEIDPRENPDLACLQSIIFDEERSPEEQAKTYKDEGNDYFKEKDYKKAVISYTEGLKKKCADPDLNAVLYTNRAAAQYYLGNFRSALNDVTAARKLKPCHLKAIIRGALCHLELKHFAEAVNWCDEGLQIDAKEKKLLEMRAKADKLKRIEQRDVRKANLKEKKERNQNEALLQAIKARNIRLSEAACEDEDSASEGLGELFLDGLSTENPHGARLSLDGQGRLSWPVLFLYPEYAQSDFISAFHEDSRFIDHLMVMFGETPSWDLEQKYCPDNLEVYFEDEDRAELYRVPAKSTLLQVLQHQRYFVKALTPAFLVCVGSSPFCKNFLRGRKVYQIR
UniProt Q96CW5, whole entry, looked up: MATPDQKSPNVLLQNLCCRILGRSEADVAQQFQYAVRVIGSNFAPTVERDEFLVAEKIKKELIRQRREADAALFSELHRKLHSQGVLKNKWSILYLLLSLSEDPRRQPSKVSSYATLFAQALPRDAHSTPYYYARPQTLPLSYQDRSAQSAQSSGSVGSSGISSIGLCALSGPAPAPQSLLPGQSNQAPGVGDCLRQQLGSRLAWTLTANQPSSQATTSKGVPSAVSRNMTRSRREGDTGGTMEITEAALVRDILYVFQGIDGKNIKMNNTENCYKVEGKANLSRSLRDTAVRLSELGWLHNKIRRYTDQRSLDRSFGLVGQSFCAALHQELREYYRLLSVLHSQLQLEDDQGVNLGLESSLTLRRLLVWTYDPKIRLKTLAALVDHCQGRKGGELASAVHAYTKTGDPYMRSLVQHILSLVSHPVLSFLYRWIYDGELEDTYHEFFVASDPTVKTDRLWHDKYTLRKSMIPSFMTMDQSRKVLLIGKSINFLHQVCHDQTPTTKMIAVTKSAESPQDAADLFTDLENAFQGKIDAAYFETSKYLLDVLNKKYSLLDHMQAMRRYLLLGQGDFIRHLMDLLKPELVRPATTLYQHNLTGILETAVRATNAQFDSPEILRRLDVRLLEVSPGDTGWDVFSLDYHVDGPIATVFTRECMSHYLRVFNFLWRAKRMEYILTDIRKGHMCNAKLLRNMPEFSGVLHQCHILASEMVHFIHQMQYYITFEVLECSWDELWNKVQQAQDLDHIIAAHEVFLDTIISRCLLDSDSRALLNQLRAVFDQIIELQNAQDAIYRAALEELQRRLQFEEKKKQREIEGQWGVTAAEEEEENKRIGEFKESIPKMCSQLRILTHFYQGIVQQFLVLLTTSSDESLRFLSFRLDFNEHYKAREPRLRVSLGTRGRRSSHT
UniProt Q8NG68: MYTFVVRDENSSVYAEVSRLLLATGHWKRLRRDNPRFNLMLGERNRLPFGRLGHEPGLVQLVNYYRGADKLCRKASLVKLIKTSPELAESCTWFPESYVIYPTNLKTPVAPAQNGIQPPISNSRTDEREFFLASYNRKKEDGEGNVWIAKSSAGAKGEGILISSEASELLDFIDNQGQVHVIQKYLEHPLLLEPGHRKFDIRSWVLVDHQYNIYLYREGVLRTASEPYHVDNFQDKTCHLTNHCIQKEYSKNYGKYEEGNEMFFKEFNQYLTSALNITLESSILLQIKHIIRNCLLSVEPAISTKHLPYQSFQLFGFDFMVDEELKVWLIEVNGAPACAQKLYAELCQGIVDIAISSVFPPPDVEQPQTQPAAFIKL
UniProt Q6IPR3: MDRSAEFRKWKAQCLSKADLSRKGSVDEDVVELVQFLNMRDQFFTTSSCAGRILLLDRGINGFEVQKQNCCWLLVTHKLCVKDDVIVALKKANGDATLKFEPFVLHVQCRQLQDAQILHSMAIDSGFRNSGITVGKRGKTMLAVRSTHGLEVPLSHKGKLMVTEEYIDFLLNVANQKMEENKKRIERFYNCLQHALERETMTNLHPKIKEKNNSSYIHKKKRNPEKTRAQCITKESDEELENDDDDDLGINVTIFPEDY

What was measured:
Test in all cases: log2 fold change, soluble protein after heating vs DMSO (PISA); higher = thermal stabilisation; K562 cells, 10 uM, 30 min; active = over 0.2 and 3.5 SD of the protein, either way, in both replicates (recomputed)
[1] = compound: COC1=CC=C(C=C1)CN2C=CC3=C2C=C(C=C3)C(=O)NO
Procedure, shortened: (§1)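 For each measurement, 10 μM compound was applied for 30 min to K562 cells at 2×10^6 cells/mL. Aliquots were heated for 3 min across 48°C-58°C, pooled, and extracted in PBS with 0.5% NP-40 at 4°C; the supernatant after 21,000xg for 90 min was soluble protein. This was quantified by TMTpro 16plex LC-MS/MS with channel sums equalised, and thermal stability was reported relative to control samples from duplicates, on a log2 fold-change scale.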

filanesib = compound: CON(C)C(=O)N1N=C(c2cc(F)ccc2F)S[C@@]1(CCCN)c1ccccc1 [filanesib]
Procedure, shortened: as §1

zotarolimus = compound: CO[C@H]1C[C@@H]2CC[C@@H](C)[C@@](O)(O2)C(=O)C(=O)N2CCCC[C@H]2C(=O)O[C@H]([C@H](C)C[C@@H]2CC[C@H](n3cnnn3)[C@H](OC)C2)CC(=O)[C@H](C)/C=C(\C)[C@@H](O)[C@@H](OC)C(=O)[C@H](C)C[C@H](C)/C=C/C=C/C=C/1C [zotarolimus]
Procedure, shortened: as §1

idasanutlin = compound: COc1cc(C(=O)O)ccc1NC(=O)[C@@H]1N[C@@H](CC(C)(C)C)[C@](C#N)(c2ccc(Cl)cc2F)[C@H]1c1cccc(Cl)c1F [idasanutlin]
Procedure, shortened: as §1

alisertib = compound: COc1cc(Nc2ncc3c(n2)-c2ccc(Cl)cc2C(c2c(F)cccc2OC)=NC3)ccc1C(=O)O [alisertib]
Procedure, shortened: as §1

[2] = compound: COc1cc2nc(-c3cc(F)ccc3O)nc(N[C@@H]3CNC[C@H]3C(C)(C)O)c2cc1OC
Procedure, shortened: as §1

gefitinib = compound: COc1cc2ncnc(Nc3ccc(F)c(Cl)c3)c2cc1OCCCN1CCOCC1 [gefitinib]
Procedure, shortened: as §1

[3] = compound: COc1cccc2cc(-c3nc([C@H]4CC[C@H](C(=O)O)CC4)n4ncnc(N)c34)[nH]c12
Procedure, shortened: as §1

lapatinib = compound: CS(=O)(=O)CCNCc1ccc(-c2ccc3ncnc(Nc4ccc(OCc5cccc(F)c5)c(Cl)c4)c3c2)o1 [lapatinib]
Procedure, shortened: as §1

pictilisib = compound: CS(=O)(=O)N1CCN(Cc2cc3nc(-c4cccc5[nH]ncc45)nc(N4CCOCC4)c3s2)CC1 [pictilisib]
Procedure, shortened: as §1

Measured: log2 fold change

TUBA1B (UniProt P68363)
inactive: [1] 0.012 | filanesib -0.118 | zotarolimus -0.056 | idasanutlin -0.052 | alisertib -0.033 | [2] -0.01 | gefitinib -0.005 | [3] 0.07 | lapatinib 0.008 | pictilisib -0.014

TUBA1C (UniProt Q9BQE3)
inactive: [1] 0.042 | filanesib -0.109 | zotarolimus 0.033 | idasanutlin -0.029 | alisertib -0.127 | [2] 0.025 | gefitinib 0.014 | [3] 0.032 | lapatinib -0.026 | pictilisib 0.018

TXN (UniProt P10599)
inactive: [1] -0.043 | filanesib -0.007 | zotarolimus -0.005 | idasanutlin 0.044 | alisertib -0.086 | [2] -0.003 | gefitinib 0.012 | [3] 0.025 | lapatinib 0.002 | pictilisib -0.091

UBA1 (UniProt P22314)
inactive: [1] 0.029 | filanesib -0.077 | zotarolimus -0.021 | idasanutlin -0.014 | alisertib 0.05 | [2] 0.047 | gefitinib 0.05 | [3] -0.053 | lapatinib -0.06 | pictilisib -0.019

TTC1 (UniProt Q99614)
inactive: [1] -0.026 | filanesib -0.004 | zotarolimus -0.02 | idasanutlin 0.003 | alisertib -0.033 | [2] -0.008 | gefitinib 0.02 | [3] 0.034 | lapatinib -0.026 | pictilisib 0.036

TUBB6 (UniProt K7ES63)
inactive: [1] -0.181 | filanesib 0.146 | zotarolimus -0.436 | idasanutlin -0.064 | alisertib 0.417 | [2] 0.059 | gefitinib 0.17 | [3] 0.138 | lapatinib -0.105

TTC9C (UniProt Q8N5M4)
inactive: [1] 0.165 | filanesib -0.041 | zotarolimus 0.28 | idasanutlin -0.057 | alisertib 0.024 | [2] 0.018 | gefitinib 0.03 | [3] 0.038 | lapatinib 0.002 | pictilisib 0.053

TXNRD2 (UniProt Q9NNW7)
inactive: [1] 0.028 | filanesib -0.019 | zotarolimus 0.025 | idasanutlin -0.012 | alisertib 0.037 | [2] -0.009 | gefitinib 0.012 | [3] 0.032 | lapatinib -0.03 | pictilisib 0.011

TSN (UniProt Q15631)
inactive: [1] 0.007 | filanesib -0.07 | zotarolimus -0.023 | idasanutlin -0.048 | alisertib -0.138 | [2] 0.06 | gefitinib 0.006 | [3] 0.009 | lapatinib -0.033 | pictilisib 0.058

UBE2G2 (UniProt P60604)
inactive: [1] -0.028 | filanesib -0.134 | zotarolimus 0 | idasanutlin -0.176 | alisertib -0.026 | [2] -0.227 | gefitinib 0.098 | [3] 0.048 | lapatinib -0.002 | pictilisib -0.301

UBE2E3 (UniProt Q969T4)
inactive: [1] -0.077 | filanesib -0.046 | zotarolimus -0.013 | idasanutlin -0.075 | alisertib -0.045 | [2] 0.108 | gefitinib -0.076 | [3] 0.022 | lapatinib -0.021 | pictilisib 0.089

UBA6
inactive: [1] 0.021 | filanesib -0.01 | zotarolimus 0.051 | idasanutlin -0.016 | alisertib -0.04 | [2] -0.031 | gefitinib 0.029 | [3] -0.069 | lapatinib 0.022 | pictilisib 0.004

Two neighbouring entries from above, for reference:
UBE2G2 (UniProt P60604)
inactive: [1] -0.028 | filanesib -0.134 | zotarolimus 0 | idasanutlin -0.176 | alisertib -0.026 | [2] -0.227 | gefitinib 0.098 | [3] 0.048 | lapatinib -0.002 | pictilisib -0.301

UBE2E3 (UniProt Q969T4)
inactive: [1] -0.077 | filanesib -0.046 | zotarolimus -0.013 | idasanutlin -0.075 | alisertib -0.045 | [2] 0.108 | gefitinib -0.076 | [3] 0.022 | lapatinib -0.021 | pictilisib 0.089

Later entries.

TXNDC12 (UniProt O95881)
inactive: [1] -0.146 | filanesib 0.069 | zotarolimus 0.028 | idasanutlin -0.016 | alisertib -0.088 | [2] 0.049 | gefitinib -0.001 | [3] -0.001 | lapatinib -0.073 | pictilisib 0.01

TUBB3 (UniProt Q13509)
inactive: [1] 0.106 | filanesib -0.13 | zotarolimus 0.024 | idasanutlin 0.013 | alisertib -0.089 | [2] -0.047 | gefitinib 0.021 | [3] 0.068 | lapatinib 0.03 | pictilisib -0.012

TSR2 (UniProt Q969E8)
inactive: [1] 0.208 | filanesib 0.029 | zotarolimus 0.059 | idasanutlin 0.033 | alisertib -0.077 | [2] -0.078 | gefitinib -0.03 | [3] -0.015 | lapatinib 0.028 | pictilisib 0.093

TXNL4B (UniProt Q9NX01)
inactive: [1] 0.011 | filanesib -0.034 | zotarolimus -0.008 | idasanutlin -0.147 | alisertib 0.097 | [2] 0.106 | gefitinib 0.042 | [3] -0.064 | lapatinib -0.003 | pictilisib -0.003

UBE2NL (UniProt Q5JXB2)
inactive: [1] -0.021 | filanesib -0.108 | zotarolimus 0.063 | idasanutlin -0.004 | alisertib -0.102 | [2] -0.073 | gefitinib 0.009 | [3] 0.005 | lapatinib -0.051 | pictilisib -0.006

UBAP2L isoform 1 (UniProt Q14157)
inactive: [1] 0.016 | filanesib -0.014 | zotarolimus 0.011 | idasanutlin 0.059 | alisertib -0.05 | [2] 0.213 | gefitinib 0.074 | [3] 0.103 | lapatinib -0.248 | pictilisib -0.114

TYW1 (UniProt Q9NV66)
inactive: [1] -0.16 | filanesib -0.01 | zotarolimus 0.019 | idasanutlin -0.023 | alisertib 0 | [2] 0.095 | gefitinib 0.013 | [3] -0.006 | lapatinib 0 | pictilisib -0.147

TTC4 (UniProt O95801)
inactive: [1] 0.087 | filanesib 0.004 | zotarolimus 0.016 | idasanutlin -0.003 | alisertib 0.029 | [2] 0.054 | gefitinib 0.032 | [3] -0.072 | lapatinib -0.003 | pictilisib -0.016

TSR1 (UniProt Q2NL82)
inactive: [1] 0.052 | filanesib 0.153 | zotarolimus 0.067 | idasanutlin 0.076 | alisertib -0.097 | [2] 0.271 | gefitinib -0.051 | [3] -0.213 | lapatinib 0.062 | pictilisib -0.008

TTN isoform 12 (UniProt Q8WZ42)
inactive: [1] -0.34 | filanesib 0.076 | zotarolimus -0.149 | idasanutlin 0.005 | alisertib -0.153 | [2] 0.236 | gefitinib -0.021 | [3] -0.018 | lapatinib -0.247 | pictilisib 0.1

TUBGCP3 (UniProt Q96CW5)
inactive: [1] -0.068 | filanesib 0.019 | zotarolimus 0.007 | idasanutlin -0.02 | alisertib -0.149 | [2] -0.093 | gefitinib 0.361 | [3] 0.045 | lapatinib 0.182 | pictilisib -0.023

TWF2 (UniProt Q6IBS0)
inactive: [1] 0.015 | filanesib -0.094 | zotarolimus 0.043 | idasanutlin -0.031 | alisertib -0.042 | [2] -0.003 | gefitinib 0.018 | [3] 0.047 | lapatinib 0.078 | pictilisib 0.11

UBE2H (UniProt P62256)
inactive: [1] -0.017 | filanesib 0.049 | zotarolimus -0.025 | idasanutlin 0.015 | alisertib -0.061 | [2] 0.065 | gefitinib 0.051 | [3] -0.048 | lapatinib 0.004 | pictilisib 0.082

TTL (UniProt Q8NG68)
inactive: [1] 0.018 | filanesib -0.167 | zotarolimus -0.018 | idasanutlin -0.016 | alisertib 0.044 | [2] 0.006 | gefitinib -0.028 | [3] 0.182 | lapatinib 0.047 | pictilisib 0.032

TUBB4A (UniProt M0QYM7)
inactive: [1] -0.276 | filanesib -0.011 | zotarolimus -0.464 | idasanutlin 0.057 | alisertib 0.171 | [2] 0.233 | gefitinib 0.046 | [3] 0.311 | lapatinib -0.358 | pictilisib 0.117

TXNDC15 (UniProt Q96J42)
inactive: [1] 0.111 | filanesib -0.088 | zotarolimus -0.193 | idasanutlin 0.295 | alisertib -0.02 | [2] -0.017 | gefitinib -0.024 | [3] 0.063 | lapatinib 0.019 | pictilisib -0.111

TTLL12 (UniProt Q14166)
inactive: [1] 0.018 | filanesib 0.321 | zotarolimus -0.013 | idasanutlin 0.274 | alisertib -0.083 | [2] 0.125 | gefitinib -0.148 | [3] -0.511 | lapatinib 0.002 | pictilisib -0.195

TYW3 (UniProt Q6IPR3)
inactive: [1] 0.007 | filanesib 0.059 | zotarolimus 0 | idasanutlin 0.045 | alisertib 0.033 | [2] -0.042 | gefitinib -0.044 | [3] 0.019 | lapatinib 0.051 | pictilisib -0.044
